Test results from article PMC8292527.
Results are given in words; binding and its absence hold for the method and conditions named. In cells and extracts the contact can be indirect. Some results given as binding are weak or reduced against the parent protein; the word gives no strength. Blank lines part the entries; values can stand above or below the substance they belong to.

By UniProt entry, the sequences of proteins in these tests, tags left out. Where a name states a change or a piece, a line headed by the entry shows the natural chain unless it says otherwise. Chains listed by the source or under a name are the forms on record and can include a tag or linker. Residues count along the entry.
UniProt Q9H6X2, residues 33-564: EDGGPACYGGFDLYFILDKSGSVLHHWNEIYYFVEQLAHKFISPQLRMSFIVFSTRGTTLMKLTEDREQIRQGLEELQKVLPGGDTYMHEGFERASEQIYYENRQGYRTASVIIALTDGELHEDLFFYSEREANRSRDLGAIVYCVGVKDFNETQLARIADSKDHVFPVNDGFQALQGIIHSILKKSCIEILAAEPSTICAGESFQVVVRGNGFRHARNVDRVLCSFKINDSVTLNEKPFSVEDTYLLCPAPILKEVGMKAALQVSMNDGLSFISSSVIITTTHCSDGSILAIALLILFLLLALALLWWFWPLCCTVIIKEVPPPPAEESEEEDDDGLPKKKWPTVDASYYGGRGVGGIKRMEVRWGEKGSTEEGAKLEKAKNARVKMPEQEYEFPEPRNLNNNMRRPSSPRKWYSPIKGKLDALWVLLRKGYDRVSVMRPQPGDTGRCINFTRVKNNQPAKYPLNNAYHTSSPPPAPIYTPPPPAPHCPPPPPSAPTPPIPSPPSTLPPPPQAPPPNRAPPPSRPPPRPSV
UniProt P08134: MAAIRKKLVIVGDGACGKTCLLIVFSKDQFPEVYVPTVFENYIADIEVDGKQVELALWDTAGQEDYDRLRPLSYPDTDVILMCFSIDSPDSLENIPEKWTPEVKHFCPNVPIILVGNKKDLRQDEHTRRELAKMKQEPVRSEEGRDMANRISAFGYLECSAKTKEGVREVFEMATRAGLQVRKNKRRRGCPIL
RhoC GAP binding site (aa34-39)-deleted truncate (ΔGAP) (P08134, form named): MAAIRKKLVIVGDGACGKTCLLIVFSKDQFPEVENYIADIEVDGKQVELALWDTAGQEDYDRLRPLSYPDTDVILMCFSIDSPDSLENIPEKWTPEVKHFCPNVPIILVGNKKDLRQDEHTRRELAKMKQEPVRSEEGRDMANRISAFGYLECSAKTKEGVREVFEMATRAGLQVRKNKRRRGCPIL
UniProt P63092: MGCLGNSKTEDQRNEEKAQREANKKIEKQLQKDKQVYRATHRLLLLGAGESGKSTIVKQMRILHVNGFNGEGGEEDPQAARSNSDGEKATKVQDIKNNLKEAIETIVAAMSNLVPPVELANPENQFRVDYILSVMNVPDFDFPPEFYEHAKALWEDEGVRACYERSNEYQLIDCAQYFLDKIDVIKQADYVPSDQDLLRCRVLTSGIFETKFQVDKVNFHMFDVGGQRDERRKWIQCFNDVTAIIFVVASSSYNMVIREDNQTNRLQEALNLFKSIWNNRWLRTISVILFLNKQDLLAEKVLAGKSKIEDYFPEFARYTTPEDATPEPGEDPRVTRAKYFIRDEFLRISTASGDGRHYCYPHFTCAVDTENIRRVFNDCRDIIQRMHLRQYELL

Columns and labels:
[1] = biological target: FLAG-tagged full length TEM8 (tumor endothelial marker 8) (human) (UniProt Q9H6X2); test: co-IP; MDA-MB-231 cells; lysates in EBC buffer (50 mM Tris, 120 mM NaCl, 0.5% NP40, pH7.5), FLAG-beads or anti-HA antibody on protein A/G agarose overnight at 4 °C, NETN wash, western blotting
[2] = biological target: Full length RhoC protein (FL), in 293T cells (UniProt P08134); test: co-IP; 293T cells transfected with GNAS (FL or ΔGTP) and/or RhoC (FL or ΔGAP); western blotting
[3] = biological target: RhoC GAP binding site (aa34-39)-deleted truncate (ΔGAP) (UniProt P08134); test: as above
[4] = biological target: RhoC, bacterial expression (pGEX-6p-1) (UniProt P08134); test: co-IP; in vitro co-IP of proteins expressed from pGEX-6p-1 in E. coli BL21; the paper calls the interactions direct; conditions not described

binding [1]: binds
Substance: Ras homolog family member C (RhoC), in MDA-MB-231 cells (from UniProt P08134 1-193)

binding [2]: binds | binding [3]: no binding
Substance: Full length GNAS protein (FL), transfected into 293T cells (from UniProt P63092 1-394)

binding [4]: binds
Substance: HA-tagged GNAS, bacterial expression (pGEX-6p-1) (from UniProt P63092 1-394)
